Taken from: PubChem BioAssay AID1259405 (NCATS, 2018)

Purpose: 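Mouse-designed siRNAs used to find CHO productivity engineering targets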 (primary screen)
Cell system: Chinese hamster CHO-K1 ovary cells with stable secreted eGFP expression
Reagents: single siRNA against mouse genes, 0.8 pmol siRNA per well (2 µl of 400 nM stock)
Timing: 3 days
Read-out: 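Percent of the per-plate non-targeting control median for intracellular GFP per well by laser scanning cytometry and for cell viability by ATP luminescence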
Reading the numbers: GFP, % of control: higher = more GFP per well, higher productivity; viability (ATP), % of control: higher = more viable cells (more ATP)
Call rule: 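a knock-down is called active if GFP reaches 120% or more of non-targeting control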
The whole screen tested about 50,000 reagents; below is an unselected part. About 4,000 of them (8%) were called active. 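Mouse siRNA library applied to hamster cells; one well for each siRNA.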 Reagents against one gene are numbered here. No sequences are given here.

no.	gene knocked down	reagent	GFP, % of control	viability (ATP), % of control	Outcome
1	Clec4a2 (GeneID 26888)	1	83.6	56.5	inactive
2	Clec4a2 (GeneID 26888)	2	84.6	77.8	inactive
3	Clec4a2 (GeneID 26888)	3	71.3	94.5	inactive
4	Or10al7 (GeneID 258324)	1	19	15.8	inactive
5	Or10al7 (GeneID 258324)	2	64.3	56.2	inactive
6	Or10al7 (GeneID 258324)	3	27.6	47.3	inactive
7	Psmd7 (GeneID 17463)	1	74.7	70.7	inactive
8	Psmd7 (GeneID 17463)	2	86.2	77.5	inactive
9	Zhx1 (GeneID 22770)	1	64.6	64.9	inactive
10	Zhx1 (GeneID 22770)	2	82.8	83.3	inactive
11	Zhx1 (GeneID 22770)	3	105	88.7	inactive
12	Adck2 (GeneID 57869)	1	76.7	73.7	inactive
13	Adck2 (GeneID 57869)	2	115	99.4	inactive
14	Adck2 (GeneID 57869)	3	109	133	inactive
15	Rtf2 (GeneID 66404)	1	60.4	65	inactive
16	Rtf2 (GeneID 66404)	2	70.8	69.6	inactive
17	Rtf2 (GeneID 66404)	3	82.1	70.3	inactive
18	Rgr (GeneID 57811)	1	61.3	48.3	inactive
19	Rgr (GeneID 57811)	2	56.6	95.2	inactive
20	Rgr (GeneID 57811)	3	48.2	60.4	inactive
21	Sergef (GeneID 27414)	1	81.1	74.8	inactive
22	Sergef (GeneID 27414)	2	118	101	inactive
23	Sergef (GeneID 27414)	3	40.9	63.3	inactive
24	Ccnb2 (GeneID 12442)	1	104	70.3	inactive
25	Ccnb2 (GeneID 12442)	2	111	92.6	inactive
26	A930012O16Rik (GeneID 227923)	1	104	68.3	inactive
27	A930012O16Rik (GeneID 227923)	2	89.8	93.1	inactive
28	A930012O16Rik (GeneID 227923)	3	90.6	67.3	inactive
29	Tnfaip6 (GeneID 21930)	1	98.7	56.7	inactive
30	Tnfaip6 (GeneID 21930)	2	108	93.4	inactive
31	Ptges2 (GeneID 96979)	1	128	97.9	active
32	Ptges2 (GeneID 96979)	2	71.4	50.5	inactive
33	Ptges2 (GeneID 96979)	3	82.1	49.9	inactive
34	Zfp998 (GeneID 76803)	1	18.9	21.7	inactive
35	Zfp998 (GeneID 76803)	2	88.3	99.5	inactive
36	Zfp998 (GeneID 76803)	3	67.4	51.1	inactive
37	Angpt2 (GeneID 11601)	1	70.8	101	inactive
38	Angpt2 (GeneID 11601)	2	86.1	67.1	inactive

Continued, starting with the last 2 of the part before.
no.	gene knocked down	reagent	GFP, % of control	viability (ATP), % of control	Outcome
37	Angpt2 (GeneID 11601)	1	70.8	101	inactive
38	Angpt2 (GeneID 11601)	2	86.1	67.1	inactive
39	Nolc1 (GeneID 70769)	1	70.4	55.3	inactive
40	Nolc1 (GeneID 70769)	2	61.7	56.5	inactive
41	Nolc1 (GeneID 70769)	3	73.3	60.5	inactive
42	Nr1h4 (GeneID 20186)	1	43.6	55.7	inactive
43	Nr1h4 (GeneID 20186)	2	77.9	87.2	inactive
44	Cstl1 (GeneID 228756)	1	76.7	49.2	inactive
45	Cstl1 (GeneID 228756)	2	84.1	66.5	inactive
46	Cstl1 (GeneID 228756)	3	101	95.6	inactive
47	Fanci (GeneID 208836)	1	68.5	75.8	inactive
48	Fanci (GeneID 208836)	2	65.1	69	inactive
49	Fanci (GeneID 208836)	3	133	152	active
50	Mmp15 (GeneID 17388)	1	50.7	85.8	inactive
51	Mmp15 (GeneID 17388)	2	120	80.5	active
52	Atp5mc1 (GeneID 11951)	1	18.1	31.7	inactive
53	Atp5mc1 (GeneID 11951)	2	57.7	53.6	inactive
54	Atp5mc1 (GeneID 11951)	3	36.4	49.2	inactive
55	Ate1 (GeneID 11907)	1	52.2	61	inactive
56	Ate1 (GeneID 11907)	2	89.4	77.7	inactive
57	Ate1 (GeneID 11907)	3	74.5	93.8	inactive
58	Calcb (GeneID 116903)	1	66.8	79	inactive
59	Calcb (GeneID 116903)	2	87.9	71.9	inactive
60	Ndfip2 (GeneID 76273)	1	64.2	95.3	inactive
61	Ndfip2 (GeneID 76273)	2	69.1	59.6	inactive
62	Ndfip2 (GeneID 76273)	3	81.2	70.9	inactive
63	Rdh18-ps (GeneID 380674)	1	25.6	21	inactive
64	Rdh18-ps (GeneID 380674)	2	67	84.8	inactive
65	Rdh18-ps (GeneID 380674)	3	75.6	74.3	inactive
66	Chrne (GeneID 11448)	1	68.3	71.6	inactive
67	Chrne (GeneID 11448)	2	42.8	81.8	inactive
68	Chrne (GeneID 11448)	3	63.5	70.1	inactive
69	Gpr132 (GeneID 56696)	1	104	90	inactive
70	Gpr132 (GeneID 56696)	2	72.9	68.7	inactive
71	Gpr132 (GeneID 56696)	3	79	73	inactive
72	Sae1 (GeneID 56459)	1	64.2	76.7	inactive
73	Sae1 (GeneID 56459)	2	75.1	70.8	inactive
74	Sae1 (GeneID 56459)	3	84.1	94.6	inactive
75	Npr2 (GeneID 230103)	1	70.4	69.8	inactive
76	Npr2 (GeneID 230103)	2	54.2	81.3	inactive
77	Npr2 (GeneID 230103)	3	73.8	82.9	inactive
78	Trafd1 (GeneID 231712)	1	60.4	61.4	inactive
79	Trafd1 (GeneID 231712)	2	103	94.2	inactive
80	Trafd1 (GeneID 231712)	3	50.6	57	inactive
81	Hectd2 (GeneID 226098)	1	79.2	62.6	inactive
82	Hectd2 (GeneID 226098)	2	57.7	59.2	inactive
83	Hectd2 (GeneID 226098)	3	56.7	67.4	inactive
84	Ktn1 (GeneID 16709)	1	55.6	64.9	inactive
85	Ktn1 (GeneID 16709)	2	98.6	59.9	inactive
86	Ktn1 (GeneID 16709)	3	24.4	28.7	inactive
87	Frs2 (GeneID 327826)	1	78.4	72.9	inactive
88	Frs2 (GeneID 327826)	2	73.5	67.8	inactive
89	Frs2 (GeneID 327826)	3	62.6	76.2	inactive
90	Zfp787 (GeneID 67109)	1	89.6	85.3	inactive
91	Zfp787 (GeneID 67109)	2	90.9	72.4	inactive
92	Zfp787 (GeneID 67109)	3	73.3	79.1	inactive
93	Pde1c (GeneID 18575)	1	92.8	90.4	inactive
94	Pde1c (GeneID 18575)	2	61.6	60.2	inactive
95	Pde1c (GeneID 18575)	3	57.5	79.1	inactive
96	Nt5dc1 (GeneID 319638)	1	89.4	85	inactive
97	Nt5dc1 (GeneID 319638)	2	56.1	43.9	inactive
98	Nt5dc1 (GeneID 319638)	3	84.7	71.8	inactive
99	Akt1s1 (GeneID 67605)	1	84.2	65.2	inactive
100	Akt1s1 (GeneID 67605)	2	68.1	77.3	inactive
101	Akt1s1 (GeneID 67605)	3	80.6	75.4	inactive
102	Rhoj (GeneID 80837)	1	134	122	active
103	Rhoj (GeneID 80837)	2	98.9	83.1	inactive
104	Rhoj (GeneID 80837)	3	95.2	79.4	inactive
105	Btbd1 (GeneID 83962)	1	60	75.1	inactive
106	Btbd1 (GeneID 83962)	2	61.6	82.3	inactive
107	Btbd1 (GeneID 83962)	3	40.5	49.9	inactive
